From paper PMC10284917

Chains of the proteins cited; added tags and fusions are not shown. Residues count along the entry.
UniProt Q27J81: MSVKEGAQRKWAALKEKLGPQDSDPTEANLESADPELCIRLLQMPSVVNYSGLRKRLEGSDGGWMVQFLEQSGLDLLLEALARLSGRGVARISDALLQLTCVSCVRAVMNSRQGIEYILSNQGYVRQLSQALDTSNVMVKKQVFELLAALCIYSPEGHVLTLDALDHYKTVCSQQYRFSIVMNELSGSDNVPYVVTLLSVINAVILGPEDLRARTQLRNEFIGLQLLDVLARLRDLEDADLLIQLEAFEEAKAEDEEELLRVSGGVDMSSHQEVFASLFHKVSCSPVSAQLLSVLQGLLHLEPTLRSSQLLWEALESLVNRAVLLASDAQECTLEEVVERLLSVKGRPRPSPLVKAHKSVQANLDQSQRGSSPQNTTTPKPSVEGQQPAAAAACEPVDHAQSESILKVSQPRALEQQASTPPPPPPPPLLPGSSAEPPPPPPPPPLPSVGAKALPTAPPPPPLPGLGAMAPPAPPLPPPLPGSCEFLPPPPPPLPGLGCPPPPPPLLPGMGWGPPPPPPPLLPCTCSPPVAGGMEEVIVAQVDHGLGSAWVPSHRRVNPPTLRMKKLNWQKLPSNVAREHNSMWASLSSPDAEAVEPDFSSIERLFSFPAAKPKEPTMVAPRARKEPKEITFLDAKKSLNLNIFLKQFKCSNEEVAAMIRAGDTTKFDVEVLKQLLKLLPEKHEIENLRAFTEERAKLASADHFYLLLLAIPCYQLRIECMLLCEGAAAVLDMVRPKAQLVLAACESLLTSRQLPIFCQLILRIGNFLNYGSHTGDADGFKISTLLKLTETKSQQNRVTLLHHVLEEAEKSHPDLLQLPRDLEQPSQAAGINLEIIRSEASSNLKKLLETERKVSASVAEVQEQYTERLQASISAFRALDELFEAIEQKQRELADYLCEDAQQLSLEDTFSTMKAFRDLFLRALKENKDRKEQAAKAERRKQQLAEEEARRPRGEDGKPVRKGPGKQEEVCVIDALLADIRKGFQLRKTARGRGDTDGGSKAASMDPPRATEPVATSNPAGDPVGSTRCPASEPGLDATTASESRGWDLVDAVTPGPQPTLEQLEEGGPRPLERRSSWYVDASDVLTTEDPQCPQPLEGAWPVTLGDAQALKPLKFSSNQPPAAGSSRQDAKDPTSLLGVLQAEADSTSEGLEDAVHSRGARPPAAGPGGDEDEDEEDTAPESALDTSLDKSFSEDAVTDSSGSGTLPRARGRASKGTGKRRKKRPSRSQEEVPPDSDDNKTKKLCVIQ
UniProt Q01518: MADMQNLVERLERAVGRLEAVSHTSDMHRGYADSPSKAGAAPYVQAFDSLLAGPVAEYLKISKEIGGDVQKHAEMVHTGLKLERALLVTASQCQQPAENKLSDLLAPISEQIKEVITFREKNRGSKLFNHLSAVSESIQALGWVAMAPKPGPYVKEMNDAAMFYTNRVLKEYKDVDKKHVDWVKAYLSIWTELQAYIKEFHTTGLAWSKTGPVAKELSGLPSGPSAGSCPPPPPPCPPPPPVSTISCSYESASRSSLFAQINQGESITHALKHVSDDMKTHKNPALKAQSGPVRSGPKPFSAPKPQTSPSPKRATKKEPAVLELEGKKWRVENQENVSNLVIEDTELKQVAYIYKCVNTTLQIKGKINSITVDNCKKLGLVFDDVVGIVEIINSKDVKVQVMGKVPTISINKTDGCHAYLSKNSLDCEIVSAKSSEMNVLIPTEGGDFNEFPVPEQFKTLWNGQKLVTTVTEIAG
UniProt P30520: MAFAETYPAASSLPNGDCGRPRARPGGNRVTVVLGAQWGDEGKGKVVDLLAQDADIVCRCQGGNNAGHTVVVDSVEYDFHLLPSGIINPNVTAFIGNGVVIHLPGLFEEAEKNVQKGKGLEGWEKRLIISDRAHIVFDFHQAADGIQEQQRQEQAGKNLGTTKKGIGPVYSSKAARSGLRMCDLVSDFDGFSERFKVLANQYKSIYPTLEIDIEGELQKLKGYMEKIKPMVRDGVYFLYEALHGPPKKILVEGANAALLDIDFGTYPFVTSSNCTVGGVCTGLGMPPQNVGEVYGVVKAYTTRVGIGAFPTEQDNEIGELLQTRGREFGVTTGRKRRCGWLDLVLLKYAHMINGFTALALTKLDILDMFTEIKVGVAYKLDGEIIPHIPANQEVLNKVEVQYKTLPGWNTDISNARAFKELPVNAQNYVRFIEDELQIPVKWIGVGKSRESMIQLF
UniProt Q15118, residues 29-436: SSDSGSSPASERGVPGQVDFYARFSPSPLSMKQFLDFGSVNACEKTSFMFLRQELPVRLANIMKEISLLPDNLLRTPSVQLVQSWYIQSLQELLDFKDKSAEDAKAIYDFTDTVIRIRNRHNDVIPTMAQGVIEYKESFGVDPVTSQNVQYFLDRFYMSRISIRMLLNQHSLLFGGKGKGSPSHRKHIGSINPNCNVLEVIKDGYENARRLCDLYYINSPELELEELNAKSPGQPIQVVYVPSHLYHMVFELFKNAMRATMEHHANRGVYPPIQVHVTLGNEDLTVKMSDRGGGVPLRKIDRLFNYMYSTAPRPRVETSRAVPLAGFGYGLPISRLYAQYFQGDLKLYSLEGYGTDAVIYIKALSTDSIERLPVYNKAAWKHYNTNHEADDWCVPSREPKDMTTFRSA

Molecular target: FLAG-INF2 (INF2-CAXX, ER-localized inverted formin 2) (UniProt Q27J81)
Test: affinity purification with mass spectrometry; FLAG-INF2 protein complex from HEK-293T cells; anti-FLAG M2 agarose beads, eluted with FLAG peptide, SDS-PAGE, Coomassie Blue staining, mass spectrometry

binding, binds:
CAP1 (from UniProt Q01518 1-475)
ADSS (from UniProt P30520 1-456)
PDK1 (from UniProt Q15118 29-436)

No constants are given. Whether binding was seen depends on the method and setting. In cells and extracts the contact can be indirect. These calls come from enrichment with a bait or labelling near it, and not all partners need be listed.
